Measured values from publication PMC12501296.
No constants are given. Whether binding was seen depends on the method and setting. In cells and extracts the contact can be indirect. Some entries that bind do so weakly or less than the wild type. Where a sequence is shown, tags or fusion partners need not be part of it.

The chains behind the UniProt entries cited, without tags or fusion partners. Residues count along the entry.
UniProt O15460, residues 22-535: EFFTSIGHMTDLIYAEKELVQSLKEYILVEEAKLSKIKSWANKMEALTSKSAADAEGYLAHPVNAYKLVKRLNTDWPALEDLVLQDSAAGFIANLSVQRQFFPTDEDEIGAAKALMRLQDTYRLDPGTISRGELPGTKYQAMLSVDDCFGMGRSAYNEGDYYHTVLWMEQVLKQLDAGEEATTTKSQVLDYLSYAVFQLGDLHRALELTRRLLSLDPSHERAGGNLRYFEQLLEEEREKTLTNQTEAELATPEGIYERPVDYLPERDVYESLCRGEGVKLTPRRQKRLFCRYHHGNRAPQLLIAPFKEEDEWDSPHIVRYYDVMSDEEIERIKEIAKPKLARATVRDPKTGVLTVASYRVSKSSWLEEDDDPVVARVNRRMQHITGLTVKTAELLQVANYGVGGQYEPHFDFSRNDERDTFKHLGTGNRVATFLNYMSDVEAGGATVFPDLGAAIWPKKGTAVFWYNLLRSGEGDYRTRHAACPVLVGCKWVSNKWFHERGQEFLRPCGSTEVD

Biological target: P4HA2-FLAG, full length, overexpressed in HEK293T cells (UniProt O15460)
Assay: co-IP; lysates of HEK293T cells overexpressing P4HA2-FLAG and/or ATAD3A-HA, full length or truncated; western blot

binding: binds
B1: ATAD3A-HA, full length, overexpressed in HEK293T cells (protein, UniProt Q9NVI7-2 1-586)
chain: MSWLFGINKGPKGEGAGPPPPLPPAQPGAEGGGDRGLGDRPAPKDKWSNFDPTGLERAAKAARELEHSRYAKDALNLAQMQEQTLQLEQQSKLKEYEAAVEQLKSEQIRAQAEERRKTLSEETRQHQARAQYQDKLARQRYEDQLKQQQLLNEENLRKQEESVQKQEAMRRATVEREMELRHKNEMLRVEAEARARAKAERENADIIREQIRLKAAEHRQTVLESIRTAGTLFGEGFRAFVTDWDKVTATVAGLTLLAVGVYSAKNATLVAGRFIEARLGKPSLVRETSRITVLEALRHPIQVSRRLLSRPQDALEGVVLSPSLEARVRDIAIATRNTKKNRSLYRNILMYGPPGTGKTLFAKKLALHSGMDYAIMTGGDVAPMGREGVTAMHKLFDWANTSRRGLLLFVDEADAFLRKRATEKISEDLRATLNAFLYRTGQHSNKFMLVLASNQPEQFDWAINDRINEMVHFDLPGQEERERLVRMYFDKYVLKPATEGKQRLKLAQFDYGRKCSEVARLTEGMSGREIAQLAVSWQATAYASEDGVLTEAMMDTRVQDAVQQHQQKMCWLKAEGPGRGDEPSPS
